PubChem BioAssay AID504834 (National Center for Advancing Translational Sciences (NCATS), 2011)
The whole screen tested about 320,000 compounds, of which about 22,000 (6.9%) were called active. The inconclusive results got no clear call from the source; some entries with a clear call stand among them for comparison. Calls follow the shape of the dose curve; as a rule, active = well fitted inhibition curve with a large enough effect; inconclusive = small, poorly fitted or top-dose-only effect, or another doubt; inactive = no such curve, though single readings can be large or run the other way. Potencies of inconclusive entries are doubtful fits and often do not repeat.

Assay: Primary qHTS for delayed death inhibitors of the malarial parasite plastid, 96 hour incubation
Conditions: P. falciparum luciferase reporter growth; series mostly up to 28.7 µM; activity change, negative = inhibition: at the top concentration
How it was run: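 P. falciparum expressing integrated firefly luciferase, in erythrocytes at 2% hematocrit, 0.05% parasitemia, incubated with compounds 96 h at 37 C, 5% CO2. Growth inhibition read as loss of luminescence; two-generation exposure targets delayed-death apicoplast inhibitors.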
% is scaled to controls: 0 for no effect and ±100 for the full control effect; potency is read from the fitted curve at half-maximal effect.

Q: With CCc1ccc(C2CC(c3ccc(C)cc3)Nc3nc(N)nn32)cc1 (centres undefined) as the compound, how does the “activity change, negative = inhibition” value read?
A: inactive: 10.8%

Q: With O=c1cc(CN2CCC(Cc3ccccc3)CC2)nc2sccn12 as the compound, how does the Potency read?
A: inconclusive: 6.57 µM [inhibitor, partial curve, poor fit]

Q: Which “activity change, negative = inhibition” value does the source give for COc1ccccc1CNC(=O)C(C)n1nc(C)n2c(cc3occc32)c1=O (centres undefined) here?
A: inactive: -25.2%

Q: Which Potency does the source give for CC1CCC(C(C)C)C(OC(=O)C[n+]2cc(-c3ccc(Cl)cc3)n3c2CCC3)C1 (centres undefined) here?
A: inconclusive: 2.94 µM [inhibitor, full curve, poor fit]

Q: For CC1CCCN(C(=O)c2cc(-c3ccco3)nc3ccccc23)C1 (centres undefined), which Potency is on record?
A: inconclusive: 18.5 µM [inhibitor, single point]

Q: Which “activity change, negative = inhibition” value does the source give for CNC(=S)Nc1cc(OC)ccc1OC here?
A: inactive: 29.8%

Q: Which Potency does the source give for CCN(CC)CCOC(=O)c1ccc(Cl)cc1 here?
A: inconclusive: 7.38 µM [inhibitor, partial curve, poor fit]

Q: With COc1ccc(NS(=O)(=O)c2cc(NC(=O)c3ccco3)ccc2N2CCCC2)cc1 as the compound, how does the Potency read?
A: inconclusive: 18.5 µM [inhibitor, single point]

Q: Which Potency does the source give for COc1ccc(CNC(=O)COC(=O)c2ccc(OCc3c(C)noc3C)cc2)cc1OC here?
A: inconclusive: 0.738 µM [inhibitor, partial curve, poor fit]

Q: For Cc1ccc(C)c(S(=O)(=O)N2CCN(C(=O)CNC(=O)c3ccc4ccccc4c3)CC2)c1, which Potency is on record?
A: inconclusive: 16.5 µM [inhibitor, partial curve, poor fit]

Q: For Cc1cc(C)cc(NC(=O)CN2CCN(CCN=CC3=C(O)CC(C)(C)CC3=O)CC2)c1, which “activity change, negative = inhibition” value is on record?
A: inactive: 8.37%

Q: For CCOc1cccc(CNc2ccc(O)cc2)c1OCc1ccccc1Cl, which Potency is on record?
A: inconclusive: 0.131 µM [inhibitor, full curve]

Q: For CN1CCN(c2ccc([N+](=O)[O-])cc2/C=N/NC(=O)c2ccc(F)cc2)CC1, which Potency is on record?
A: inconclusive: 9.28 µM [inhibitor, partial curve, poor fit]

Q: Which Potency does the source give for N#C/C(=C\c1c(Oc2ccccc2F)nc2ccccn2c1=O)C(=O)NC1CCS(=O)(=O)C1 (centres undefined) here?
A: active: 9.28 µM

Q: For Cc1noc2ncc(C(=O)c3cc(F)ccc3O)cc12, which Potency is on record?
A: active: 8.28 µM

Q: Which Potency does the source give for CCN(Cc1ccc(OC)c(F)c1)C(=O)CCl here?
A: inconclusive: 2.62 µM [inhibitor, single point]

Q: For Cc1ccc(C2=NCC(=O)N(CC(=O)N3CCCCC3)c3sc(C)c(C)c32)cc1, which Potency is on record?
A: inconclusive: 11.7 µM [inhibitor, partial curve]

Q: For COC(=O)c1cc(S(=O)(=O)NCc2ccc(S(N)(=O)=O)cc2)oc1C, which “activity change, negative = inhibition” value is on record?
A: inactive: 5.37%

Q: Which “activity change, negative = inhibition” value does the source give for CCCc1nnc(NC(=O)Cn2cnc3ccccc3c2=O)s1 here?
A: inactive: 26.7%

Q: For COc1ccc(CCNC(=O)CSc2nc(=O)n3cc(C)ccc3n2)cc1OC, which “activity change, negative = inhibition” value is on record?
A: inactive: 46.5%

Q: For O=C(CN1C(=O)CSc2ccccc21)NC1CCCC1, which Potency is on record?
A: inconclusive: 0.522 µM [inhibitor, partial curve, poor fit]

Q: For COc1ccccc1C(=O)Nc1ccc(S(=O)(=O)N2CCc3ccccc32)cc1, which Potency is on record?
A: inconclusive: 14.7 µM [inhibitor, partial curve, poor fit]

Q: Which Potency does the source give for Cn1cc(/C=C/C(=O)N2CCCC(C(=O)c3ccc(C(F)(F)F)cc3)C2)cn1 (centres undefined) here?
A: active: 10.4 µM

Q: Which Potency does the source give for CC(=O)Nc1cccc(C(=O)Nc2cccc(S(=O)(=O)NCc3ccco3)c2)c1 here?
A: inconclusive: 18.5 µM [inhibitor, single point]

Q: With COc1ccc(NC(=O)c2cc(C3CC3)nc3c2cnn3C(C)C)cc1OC as the compound, how does the Potency read?
A: active: 14.7 µM

Q: With CCN(CC)CCOC(=O)C(c1ccccc1)C1CCCCC1 (centres undefined) as the compound, how does the Potency read?
A: inconclusive: 19 µM [inhibitor, single point]

Q: Which Potency does the source give for Cc1ccc(NC(=O)C2CCCN(S(=O)(=O)c3c(C)noc3C)C2)cc1F (centres undefined) here?
A: active: 2.33 µM

Q: For CCCCn1c(-c2cccc(Br)c2)nc2cc3[nH]c(=O)c(C(C)C)nc3cc21, which Potency is on record?
A: active: 6.57 µM

Q: For Cc1ccc(NC(=O)CCNS(=O)(=O)c2ccc3[nH]c(=O)oc3c2)cc1C, which “activity change, negative = inhibition” value is on record?
A: inactive: 3.46%

Q: With O=c1c2ccccc2nc(-c2ccccc2)n1-c1ccccc1O as the compound, how does the Potency read?
A: inconclusive: 16.5 µM [inhibitor, single point]

Q: With COc1cc(Cl)c(CN2CCC(CCC(=O)NC3CC3)CC2)cc1OC as the compound, how does the Potency read?
A: inconclusive: 10.4 µM [inhibitor, single point]

Q: For Cc1ccc(-c2nc(-c3cccnc3)sc2CC(=O)Nc2ccc(C)c(Cl)c2)cc1, which Potency is on record?
A: active: 11.7 µM

Q: Which Potency does the source give for Cc1ccc(-c2[nH]ncc2C(=O)c2ccc(Br)cc2)c(O)c1 here?
A: inconclusive: 11.7 µM [inhibitor, single point]

Q: Which “activity change, negative = inhibition” value does the source give for COc1ccccc1/C=C/C=N/N1CCN(c2ccccn2)CC1 here?
A: inactive: 24.9%

Q: With OCCC1CN(Cc2nc3ccccc3s2)CCN1C1CCCCC1 (centres undefined) as the compound, how does the Potency read?
A: inconclusive: 11.7 µM [inhibitor, single point]

Q: Which Potency does the source give for S=C(NCCCN1CCOCC1)Nc1ccc(Nc2ccccc2)cc1 here?
A: inconclusive: 2.08 µM [inhibitor, single point]

Q: For O=C(N/N=C/c1cc([N+](=O)[O-])ccc1O)c1ccncc1, which Potency is on record?
A: inconclusive: 11.7 µM [inhibitor, partial curve]

Q: With S=c1nc2ccccc2c2nc(-c3cccnc3)[nH]n12 as the compound, how does the Potency read?
A: inconclusive: 11.7 µM [inhibitor, partial curve]

Q: With CCN1C(=O)[C@H]2[C@@H](c3ccc(-c4ccc(OC)cc4)c(OC)c3)N[C@@](C)(C(=O)OC)[C@H]2C1=O as the compound, how does the Potency read?
A: inconclusive: 18.5 µM [inhibitor, single point]

Q: With O=C(O)c1ccccc1SCc1ccc2c(c1)OCO2 as the compound, how does the Potency read?
A: inconclusive: 14.7 µM [inhibitor, partial curve]

Q: With Cc1ccc(C(=O)NN(C)c2nc3ccccc3nc2C(F)(F)F)cc1 as the compound, how does the Potency read?
A: inconclusive: 14.7 µM [inhibitor, single point]

Q: Which Potency does the source give for COc1ccc(CNCCC(c2ccc(OC)cc2)c2ccccc2OC)cc1 (centres undefined) here?
A: inconclusive: 18.5 µM [inhibitor, single point]

Q: With COc1ccc(C(=O)NCCOC(C)C)cc1OC1CCN(C(C)=O)CC1 as the compound, how does the Potency read?
A: active: 10.4 µM

Q: Which Potency does the source give for O=C(CSc1nc2ccccc2s1)N1N=C(c2cccs2)CC1c1ccc(F)cc1 (centres undefined) here?
A: inconclusive: 10.4 µM [inhibitor, single point]
